US11255843B2, “Compositions and methods for identifying metabolically active agents” (Northwestern University, priority 2016, dated 2022)
For at least one compound, name, drawing or mass did not settle the structure.

System: PdxCreER;Bmal1flx/flx islets
Experiment: Static insulin secretion assay in islets isolated from tamoxifen-treated PdxCreER;Bmal1flx/flx mice (ELISA)
Format: cell-based, mouse
Details: islets from tamoxifen-treated mutant vs control mice, stimulated 1 hour; 1 mM carbachol, 10 μM PMA, 10 μM ionomycin, 2.5 μM forskolin, 1 mM 8-Br-cAMP
Method: Mouse pancreatic islets were isolated via bile duct collagenase digestion (Collagenase P, Sigma) and Ficoll gradient separation and left to recover overnight (16 hours) at 37° C. in RPMI 1640 with 10% fetal bovine serum (FBS), 1% 1-glutamine, and 1% penicillin/streptomycin. For standard insulin release assays, five islets were statically incubated in Krebs-Ringer buffer (KRB) and stimulated for 1 hour at 37° C. with various glucose concentrations, 30 mM KCl, 2.5 μM forskolin, 1 mM 8-Br-cAMP, 10 mM 1-leucine+2 mM 1-glutamine, 1 mM carbachol, 10 μM PMA, or 10 μM ionomycin. Supernatant was collected and assayed for insulin content by enzyme-linked immunosorbent assay (ELISA; Crystal Chem Inc.). Islets were then sonicated in acid-ethanol solution and solubilized overnight at 4° C. before assaying total insulin content by ELISA. For rhythmic insulin release assays, islets were first synchronized with 10 μM forskolin (Sigma) for 1 hour and allowed to recover for 16 hours. Insulin secretion assays were then performed as above in individual groups of five islets every 4 hours for 72 hours (FIG. 5A). Human islets (obtained from IIDP) were cultured in RPMI 1640 with 10% human AB serum, 1% 1-glutamine, and 1% penicillin/streptomycin (see table in FIG. S4A for details of sex, age, BMI, and IIDP ID numbers of the three donors). […]

C=C[C@@]1(C)CC(=O)[C@]2(O)[C@@]3(C)[C@@H](O)CCC(C)(C)[C@@H]3[C@H](O)[C@H](OC(C)=O)[C@@]2(C)O1 [forskolin]
insulin secretion in PdxCreER;Bmal1flx/flx islets in response to secretagogue: secreted significantly less insulin than controls
